The target of test [1] is p53 protein, endogenous in MCF7 cells (human (endogenous in MCF7)) (UniProt P04637). Kind of test: co-IP; cells lysed in RIPA buffer with sonication; lysate pre-cleared with A-sepharose magnetic beads, immunoprecipitating antibody added, immune complex separated with A-sepharose magnetic beads, Western blot; MCF7 cells with ectopic ZDHHC1 and HCT116 cells (endogenous proteins). (Immunoblotting shows a protein as a band on a membrane.)

The target of test [2] is p53 protein, endogenous in HCT116 cells (human (endogenous in HCT116)) (UniProt P04637). The description is as above.

No constants are given. Whether binding was seen depends on the method and setting. In cells and extracts the contact can be indirect. Some results given as binding are weak or reduced against the parent protein; the word gives no strength.

B1: Zinc Finger DHHC-Type Containing 1 (ZDHHC1), ectopic (enzyme, UniProt Q8WTX9 1-485)
chain: MYKMNICNKPSNKTAPEKSVWTAPAQPSGPSPELQGQRSRRNGWSWPPHPLQIVAWLLYLFFAVIGFGILVPLLPHHWVPAGYACMGAIFAGHLVVHLTAVSIDPADANVRDKSYAGPLPIFNRSQHAHVIEDLHCNLCNVDVSARSKHCSACNKCVCGFDHHCKWLNNCVGERNYRLFLHSVASALLGVLLLVLVATYVFVEFFVNPMRLRTNRHFEVLKNHTDVWFVFLPAAPVETQAPAILALAALLILLGLLSTALLGHLLCFHIYLMWHKLTTYEYIVQHRPPQEAKGVHRELESCPPKMRPIQEMEFYMRTFRHMRPEPPGQAGPAAVNAKHSRPASPDPTPGRRDCAGPPVQVEWDRKKPLPWRSPLLLLAMWGPQAPPCLCRKRGRGACIKCERLRPRIRRRGLGPPAAAPARRRIPRTPALCTPLALPAPTTRRRQSPWTRFQWRRRAWAAPLWPPRGAGADSPRWRGRRVRPPFS
As for B1, the binding result in test [1] is reported as “binds”.

B2: Zinc Finger DHHC-Type Containing 1 (ZDHHC1), endogenous in HCT116 cells (enzyme, UniProt Q8WTX9 1-485)
chain: B1 chain
Regarding B2, the binding entry in test [2] is “binds”.

The values are drawn from paper PMC8413129.
